Data reported in PubChem BioAssay AID2417 (National Center for Advancing Translational Sciences (NCATS), 2010).
In all, about 140,000 compounds went through this assay and about 4,300 (3.1%) were called active. Inconclusive means that the source gave no clear call. Such entries were picked first, then a sample of the others.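 The calls were made as follows: active = readout at or below -70, meaning at least 70% loss of cells showing the perinucleolar compartment, a nuclear body marking cancer cells; inconclusive = readout between -30 and a set limit; inactive = the rest.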

Assay: High Content Assay for Compounds that inhibit the Assembly of the Perinucleolar Compartment;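 also: plate controls were DMSO wells for no effect and camptothecin positive control wells for full effect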
Details: PC3M PTB-GFP, PNC prevalence imaging, 16 h; at 10 µM; stronger effect = lower value
In short: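 Read-out is percentage of cells bearing a perinucleolar compartment, from automated 20x imaging of fixed, Hoechst-stained PC3M PTB-GFP cells. Cells were seeded 4 h, then exposed 16 h to compound (23 nl of library stock) in duplicate plates.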
With CC1=NN(C(N)=S)C(=O)C1N=Nc1c(C)cc(C)cc1C (configuration not stated) the activity change (PNC), negative = inhibition was inactive: 6.97%. In the case of CC(=O)N1CCN(c2ccc(NC(=S)NC(=O)COc3ccc(C(C)(C)C)cc3)cc2)CC1, the activity change (PNC), negative = inhibition was inactive: 34.3%. For O=C(CSc1nnnn1-c1ccccc1)Nc1ccc(Cl)cn1, the activity change (PNC), negative = inhibition was inconclusive: -47.6%. With NS(=O)(=O)c1ccc(CCNC2CC(=O)N(Cc3ccccc3)C2=O)cc1 (configuration not stated) the activity change (PNC), negative = inhibition was inconclusive: -56.9%. In the case of CCOC(=O)C1CCCN(c2c(NCC3CCCO3)c(=O)c2=O)C1 (configuration not stated), the activity change (PNC), negative = inhibition was inactive: 10.6%. For Nc1cc(N2CCCCC2)c(Cl)cc1[N+](=O)[O-], the activity change (PNC), negative = inhibition was inconclusive: -58.2%. With COc1ccccc1N1CCN(C(=O)c2cc3c(=O)n(C)c4ccccc4c3n2C)CC1 the activity change (PNC), negative = inhibition was active: -88.3%. With CS(=O)(=O)N1CCc2cc(-c3csc(NC(=O)Cc4ccccc4)n3)ccc21 the activity change (PNC), negative = inhibition was active: -119%. In the case of CCn1c(SCC(=O)c2ccc(F)cc2)nnc1-c1ccoc1C, the activity change (PNC), negative = inhibition was inconclusive: -47.6%. In the case of CCOC(=O)C1NN=C(C(=O)c2ccccc2)C1c1ccccc1 (configuration not stated), the activity change (PNC), negative = inhibition was inconclusive: -43.2%. For CCOC(=O)C1CCN(c2cc(=O)n(Cc3ccc(F)cc3)c(=O)[nH]2)CC1, the activity change (PNC), negative = inhibition was inconclusive: -31.8%. In the case of O=C(CSc1nnc(-c2ccco2)n1Cc1ccco1)NCc1ccccc1, the activity change (PNC), negative = inhibition was active: -94.2%. In the case of O=C(Nc1ncc(Cc2ccccc2)s1)c1cccs1, the activity change (PNC), negative = inhibition was inconclusive: -40.7%. With CCOCCCNC(=O)NC12CC3CC(CC(C3)C1)C2 the activity change (PNC), negative = inhibition was inconclusive: -65.6%. With O=C(c1ccccc1)c1nn(-c2ccc(Cl)cc2)c(=O)cc1C(F)(F)F the activity change (PNC), negative = inhibition was inconclusive: -49.6%. With Cc1snc(S(=O)(=O)/C(C#N)=N/Nc2cccc(C(F)(F)F)c2)c1C#N the activity change (PNC), negative = inhibition was inconclusive: -42.4%. In the case of N#Cc1ccccc1Sc1ccccc1N, the activity change (PNC), negative = inhibition was inactive: -18.2%. In the case of CCc1nc2ccccc2c(C(=O)OCC(=O)NCc2ccco2)c1C, the activity change (PNC), negative = inhibition was inconclusive: -60.4%. With Cc1ccc2nc(-c3cccc(NS(C)(=O)=O)c3)cc(-c3ccccc3)c2c1 the activity change (PNC), negative = inhibition was inconclusive: -55.3%. With Cc1cc2c(ncn2C)c(NS(=O)(=O)c2ccccc2Cl)c1C the activity change (PNC), negative = inhibition was active: -83.5%. In the case of CCOc1ccc(NC(=O)c2cnsn2)cc1, the activity change (PNC), negative = inhibition was inconclusive: -32.5%. With O=C(Nc1cc(Cl)cc(Cl)c1)C(NCC1CCCO1)c1ccccc1 (configuration not stated) the activity change (PNC), negative = inhibition was inactive: 22%. For CCOC(=O)c1c(C)n(CC)c2ccc(OC(=O)c3ccc([N+](=O)[O-])cc3)cc12, the activity change (PNC), negative = inhibition was inconclusive: -70.9%. For FC(F)(F)c1cccc(NC(=S)NNC(=S)NCc2ccccc2)c1, the activity change (PNC), negative = inhibition was inactive: -2.48%. For CCc1ccc(NC(=O)c2ccc3c(c2)C(=O)N(CCOC)C3Nc2ccc(CC)cc2)cc1 (configuration not stated), the activity change (PNC), negative = inhibition was inconclusive: -42.6%. In the case of CC1(C)OC(=O)C(=NNc2ccc(O)cc2)C(=O)O1, the activity change (PNC), negative = inhibition was inconclusive: -39.6%. For Cc1nc[nH]c(=O)c1Br, the activity change (PNC), negative = inhibition was inconclusive: -43.8%. With Cc1ccc(-c2nnc(Nc3ccc4c(c3)OCO4)c3ccccc23)cc1S(N)(=O)=O the activity change (PNC), negative = inhibition was inconclusive: -45.3%. With COc1ccc(C(=O)NCc2ccccn2)cc1 the activity change (PNC), negative = inhibition was inconclusive: -55.9%. In the case of CCCCCCCCS(=O)C1CCS(=O)(=O)C1 (configuration not stated), the activity change (PNC), negative = inhibition was inconclusive: -51.1%. In the case of O=C(O)c1cc(-c2ccccc2)nc2ccccc12, the activity change (PNC), negative = inhibition was inactive: 10.8%. In the case of O=C1OCc2cc(NC(=O)C3CCCCC3)ccc21, the activity change (PNC), negative = inhibition was inconclusive: -43.1%. In the case of CC(=O)O[C@]1(C(C)=O)CC[C@H]2[C@@H]3C[C@H](C)C4=CC(=O)CC[C@]4(C)[C@H]3CC[C@@]21C, the activity change (PNC), negative = inhibition was inactive: 13.5%. For C=CCN1C(=O)NC(c2ccccc2)(C(F)(F)F)S/C1=C(\C#N)c1nnc(N2CCOCC2)n1-c1ccccc1 (configuration not stated), the activity change (PNC), negative = inhibition was inactive: 32.2%. For O=C(CSc1nc(-c2ccccc2)cs1)N1CCN(C(=O)c2ccco2)CC1, the activity change (PNC), negative = inhibition was inconclusive: -42.7%. In the case of CCOc1cc(C(=O)NCc2ccncc2)cc(OCC)c1OCC, the activity change (PNC), negative = inhibition was inconclusive: -77.6%. For CC1CCN(c2ccc(NC(=O)c3cccnc3)cc2)CC1, the activity change (PNC), negative = inhibition was inconclusive: -35%. For COC(=O)c1ccc(OS(=O)(=O)c2ccc(NC(C)=O)cc2)cc1, the activity change (PNC), negative = inhibition was inactive: -2.16%. In the case of COc1ccc(C2CC(=O)C3=C(C2)Nc2ccccc2N(C(C)=O)C3c2ccco2)cc1 (configuration not stated), the activity change (PNC), negative = inhibition was inactive: -15.1%. With COC(=O)CNC(=O)C(C)NC(=O)OCc1ccccc1 (configuration not stated) the activity change (PNC), negative = inhibition was active: -127%. In the case of COc1ccc(Cl)cc1C(=O)NCc1cnn(C)c1C, the activity change (PNC), negative = inhibition was inconclusive: -30.5%. In the case of CN(C)CCCN(C(=O)CCc1ccccc1)c1nc2ccc(Cl)cc2s1, the activity change (PNC), negative = inhibition was inactive: 39.4%. With CCN(CC)C(=O)c1ccc(S(=O)(=O)N2CCC(c3nc4ccccc4s3)CC2)cc1 the activity change (PNC), negative = inhibition was active: -100%. In the case of CN1C(=O)C2(C(C#N)=C(N)Oc3n[nH]c(-c4ccc(Cl)cc4)c32)c2ccccc21 (configuration not stated), the activity change (PNC), negative = inhibition was inconclusive: -38.8%. In the case of O=C(NCc1nc(-c2ccccc2)no1)c1ccc2c(c1)OCO2, the activity change (PNC), negative = inhibition was inconclusive: -45.1%. With O=C(CN1C(=O)CCS(=O)(=O)c2ccccc21)Nc1ccc2c(c1)OCCO2 the activity change (PNC), negative = inhibition was active: -100%. For O=C(COc1ccc2ccccc2c1)Nc1ccc(Cc2ccncc2)cc1, the activity change (PNC), negative = inhibition was inconclusive: -38.8%. For Cc1ccc(S(=O)(=O)CC#CCOC(=O)c2ccc([N+](=O)[O-])cc2)cc1, the activity change (PNC), negative = inhibition was inconclusive: -46.1%. In the case of Cc1ccc(OCCn2cc(/C(N)=N/O)c3ccccc32)cc1C, the activity change (PNC), negative = inhibition was inactive: 13.4%. For COc1ccc(S(=O)(=O)N2CCCN(S(=O)(=O)c3ccc(OC)c(C)c3)CC2)cc1C, the activity change (PNC), negative = inhibition was inconclusive: -78.8%. In the case of Cc1cc(/C=C2/SC(=S)N(c3ccc([N+](=O)[O-])cc3)C2=O)c(C)n1-c1cccnc1, the activity change (PNC), negative = inhibition was inactive: 38.7%. With COC(=O)c1ccsc1NC(=O)CN1CCN(c2ccc(F)cc2)CC1 the activity change (PNC), negative = inhibition was inconclusive: -68.2%. With CCOC(=O)COc1ccc2ccccc2c1/C=C/[N+](=O)[O-] the activity change (PNC), negative = inhibition was inactive: -10.3%. With CC(C)Cc1nc2oc3c(N4CCN(CCO)CC4)ncnc3c2c2c1CCCC2 the activity change (PNC), negative = inhibition was inconclusive: -39.3%. For CCc1ccc(NC(=O)CC2C(=O)Nc3c2c(=O)n(C)c(=O)n3C)cc1 (configuration not stated), the activity change (PNC), negative = inhibition was inactive: 35.7%. In the case of NC(=O)c1c(NC(=O)c2cc3ccccc3o2)sc2c1CCC2, the activity change (PNC), negative = inhibition was inconclusive: -38.2%. For O=C(Cc1ccccc1[N+](=O)[O-])Nc1ccc2c(c1)OCCO2, the activity change (PNC), negative = inhibition was inactive: -28.7%.
